# Reference: PubChem BioAssay AID1224830 (NIAID, 2016)
# Assay: 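Genes whose knock-down alters the TNF-alpha reporter response to LPS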 (primary screen)
# Cells: human THP-1 monocytic leukaemia cells, TNF dual-luciferase reporter clone, PMA-differentiated to macrophage-like cells
# Reagents: siRNA pool against human genes, 50 nM
# Timing: LPS for 4 h, given about 3 days after siRNA transfection
# Challenge: bacterial LPS (TLR4 ligand), 10 ng/ml
# Read-out: 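Ratio of firefly to renilla light, scaled to the plate median and expressed as a robust z-score per replicate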
# Direction: TNF reporter robust z-score: higher = stronger TNF reporter response to LPS
# Hit rule: 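a well is active when its z-score exceeds 2.8 or falls below -1.5; control wells carry no call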
# In all, the deposit lists about 18,000 reagents; below is a random part of them. About 2,900 of them (16%) were called active. 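Calls are made per well; low scores hint the gene aids the LPS response, high scores that it dampens it.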 Entries without a mark were called inactive. Repeated entries: four replicate wells of each siRNA pool.
gene,TNF reporter robust z-score
CCSER2,-0.05
CCSER2,-0.48
CCSER2,-0.45
IL17D,3.02 (active)
IL17D,3.1 (active)
IL17D,1.24
IL17D,2.27
KLHL25,0.57
KLHL25,-0.33
KLHL25,0.13
KLHL25,0.49
CDH17,0.7
CDH17,1.07
CDH17,0.16
CDH17,-0.67
SHFL,-1.8 (active)
SHFL,-1.5
SHFL,-1.6 (active)
SHFL,-1.35
FGF18,-0.1
FGF18,2.17
FGF18,1.77
FGF18,1.57
GAS1,-1.18
GAS1,-0.14
GAS1,-0.63
GAS1,-0.45
FCN1,0.13
FCN1,0.55
FCN1,-0.27
FCN1,0.05
ATXN1,1
ATXN1,0.35
ATXN1,0.99
ATXN1,2.02
PCOLCE,0.63
PCOLCE,0.41
PCOLCE,0.17
DCLRE1C,-0.5
DCLRE1C,0.75
DCLRE1C,0.03
DCLRE1C,0.15
ERGIC3,-1.41
ERGIC3,-0.14
ERGIC3,-0.08
ERGIC3,0.84
EPHB4,-0.19
EPHB4,-1.05
EPHB4,0.35
EPHB4,-0.91
MMP23B,1.02
MMP23B,0.28
MMP23B,-0.67
FOXK1,3.56 (active)
FOXK1,2.69
FOXK1,3.27 (active)
FOXK1,2.21
SV2C,-0.12
SV2C,0.14
SV2C,0
SV2C,-0.21
ACP2,1.51
ACP2,2.11
ACP2,2.52
ACP2,0.05
STX2,-0.52
STX2,-0.11
STX2,-0.57
STX2,1.08
PCNT,0.7
PCNT,0.49
PCNT,-0.09
PCNT,-1.07

6 entries from above in another layout.
gene	TNF reporter robust z-score
FCN1	-0.27
FCN1	0.05
ATXN1	1
ATXN1	0.35
ATXN1	0.99
ATXN1	2.02

Further records:
gene,TNF reporter robust z-score
TEKT4,1.22
TEKT4,-0.26
TEKT4,-0.68
TEKT4,-0.35
ITGAV,-1.33
ITGAV,-0.68
ITGAV,-1.14
ITGAV,0.5
ABCG2,-0.34
ABCG2,0.45
ABCG2,0
ABCD2,0.24
ABCD2,1.96
ABCD2,-0.19
ABCD2,-1.56 (active)
CFL1,-0.82
CFL1,-1.36
CFL1,-1.11
CFL1,-1.26
HSD17B7,0.74
HSD17B7,1.43
HSD17B7,-1.53 (active)
HSD17B7,0.14
POLR1A,-0.36
POLR1A,0.84
POLR1A,0.34
POLR1A,2.29
OTULINL,2.07
OTULINL,0.13
OTULINL,-0.01
OTULINL,-0.1
NPY1R,-0.07
NPY1R,-0.36
NPY1R,-0.94
NPY1R,-0.08
SLC26A2,-1.02
SLC26A2,-0.46
SLC26A2,-1.34
SLC26A2,-1.31
